From publication PMC4709948
No constants are given. Whether binding was seen depends on the method and setting. In cells and extracts the contact can be indirect. Some entries that bind do so weakly or less than the wild type. Values belong to the substance of their own block, whether it stands above or below them.

Protein sequences, listed by entry. Tags and fused reporters are not part of them. Residues count along the entry.
UniProt Q15109, residues 23-404: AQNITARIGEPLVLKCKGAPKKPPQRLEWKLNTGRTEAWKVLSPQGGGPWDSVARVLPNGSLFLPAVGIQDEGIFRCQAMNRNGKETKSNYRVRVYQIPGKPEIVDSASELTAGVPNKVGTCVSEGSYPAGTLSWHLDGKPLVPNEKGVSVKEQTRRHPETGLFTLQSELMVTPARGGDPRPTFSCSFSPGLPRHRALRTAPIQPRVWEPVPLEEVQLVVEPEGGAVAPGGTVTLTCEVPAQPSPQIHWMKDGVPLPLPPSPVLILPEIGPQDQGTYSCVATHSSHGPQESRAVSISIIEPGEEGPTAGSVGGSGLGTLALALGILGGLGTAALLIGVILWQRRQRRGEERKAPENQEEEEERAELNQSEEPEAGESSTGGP
UniProt Q8IW41: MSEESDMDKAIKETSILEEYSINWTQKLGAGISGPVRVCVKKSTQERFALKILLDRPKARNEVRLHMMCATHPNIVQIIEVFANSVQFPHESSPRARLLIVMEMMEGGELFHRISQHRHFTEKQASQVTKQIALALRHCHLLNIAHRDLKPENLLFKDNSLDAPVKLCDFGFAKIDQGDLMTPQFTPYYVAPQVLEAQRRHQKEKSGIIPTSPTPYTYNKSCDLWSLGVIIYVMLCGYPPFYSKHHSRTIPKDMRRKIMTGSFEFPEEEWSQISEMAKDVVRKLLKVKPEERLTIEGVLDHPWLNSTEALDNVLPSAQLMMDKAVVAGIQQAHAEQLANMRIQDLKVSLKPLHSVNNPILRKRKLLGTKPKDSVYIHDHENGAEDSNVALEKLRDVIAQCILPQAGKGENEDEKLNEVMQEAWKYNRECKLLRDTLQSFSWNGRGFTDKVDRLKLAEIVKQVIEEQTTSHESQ
UniProt Q62151, residues 23-402: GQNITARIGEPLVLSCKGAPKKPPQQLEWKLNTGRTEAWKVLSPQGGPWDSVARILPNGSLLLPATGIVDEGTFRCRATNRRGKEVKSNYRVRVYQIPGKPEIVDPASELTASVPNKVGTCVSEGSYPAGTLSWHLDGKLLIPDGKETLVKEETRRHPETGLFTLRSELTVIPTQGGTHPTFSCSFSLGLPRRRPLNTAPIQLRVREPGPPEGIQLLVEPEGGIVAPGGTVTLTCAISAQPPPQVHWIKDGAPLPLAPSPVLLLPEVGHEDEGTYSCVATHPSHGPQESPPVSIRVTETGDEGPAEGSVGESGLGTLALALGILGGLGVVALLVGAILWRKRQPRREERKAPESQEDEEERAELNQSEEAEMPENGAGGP
UniProt O54992: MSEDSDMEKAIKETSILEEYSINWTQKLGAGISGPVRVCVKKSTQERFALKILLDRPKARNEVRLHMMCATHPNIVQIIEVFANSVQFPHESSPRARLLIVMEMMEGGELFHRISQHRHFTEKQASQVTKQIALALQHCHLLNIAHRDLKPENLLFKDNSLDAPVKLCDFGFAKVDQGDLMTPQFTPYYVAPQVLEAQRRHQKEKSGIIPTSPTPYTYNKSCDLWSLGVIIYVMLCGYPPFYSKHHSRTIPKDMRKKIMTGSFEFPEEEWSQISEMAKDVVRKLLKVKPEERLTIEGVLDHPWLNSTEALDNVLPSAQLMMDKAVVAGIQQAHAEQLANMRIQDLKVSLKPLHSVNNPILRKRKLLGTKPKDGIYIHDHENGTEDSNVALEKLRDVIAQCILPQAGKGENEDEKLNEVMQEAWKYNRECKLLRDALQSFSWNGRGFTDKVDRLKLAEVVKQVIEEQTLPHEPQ

Tests used:
[1] = target: RAGE overexpressed in SH-SY5Y cells (human) (UniProt Q15109); assay: proximity ligation; in situ, SH-SY5Y cells co-transfected with RAGE and PRAK, treated with DMSO or 2 uM monomeric Abeta for 6 h; Duolink
[2] = target: endogenous RAGE of SH-SY5Y cells (human (endogenous in SH-SY5Y)) (UniProt Q15109); assay: co-IP; endogenous proteins, SH-SY5Y cell lysates (RIPA); IP with RAGE antibody or normal IgG, western blot
[3] = target: GFP-tagged PRAK, transfected in CHO cells (UniProt Q8IW41); assay: co-IP; lysates of CHO cells transfected with RAGE and GFP-tagged PRAK, 1 % CHAPS buffer; IP with anti-GFP antibody, western blot with anti-RAGE antibody
[4] = target: endogenous RAGE of mouse brain (mouse (endogenous in brain)) (UniProt Q62151); assay: co-IP; endogenous proteins, total brain lysates (RIPA) of 3 months wild-type littermates and Tg6799 mice; IP with anti-RAGE antibody, western blot with anti-PRAK antibody

- binding [1]: binds
Substance: PRAK overexpressed in SH-SY5Y cells (from UniProt Q8IW41 1-473) (enzyme)

- binding [2]: binds
Substance: endogenous PRAK of SH-SY5Y cells (from UniProt Q8IW41 1-473) (enzyme)

- binding [3]: binds
Substance: full-length human RAGE, transfected in CHO cells (from UniProt Q15109 23-404) (receptor)

- binding [4]: binds
Substance: endogenous PRAK of mouse brain (from UniProt O54992 1-473) (enzyme)
